Publication PMC6796840, “An H3K27me3 demethylase-HSFA2 regulatory loop orchestrates transgenerational thermomemory in Arabidopsis”
Results are given in words; binding and its absence hold for the method and conditions named. For part of these data: In cells and extracts the contact can be indirect. Some binding calls cover weakened binding; strength is not graded here. Where a sequence is shown, tags or fusion partners need not be part of it. One block for each binder: values may come before it.

Legend:
[1] = biological target: T1, SGS3-… PROTEIN 1 (SGIP1, AT3G47020), GAL4 fusion for yeast two-hybrid (Arabidopsis) (UniProt Q9SD71); assay: two-hybrid; GAL4 activation domain (pDEST-GADT7) and GAL4 DNA binding domain (pDEST-GBKT7) fusions co-transformed into yeast AH109; growth on dropout medium without leucine, histidine and tryptophan with 2 mM 3-aminotriazole
T1 sequence: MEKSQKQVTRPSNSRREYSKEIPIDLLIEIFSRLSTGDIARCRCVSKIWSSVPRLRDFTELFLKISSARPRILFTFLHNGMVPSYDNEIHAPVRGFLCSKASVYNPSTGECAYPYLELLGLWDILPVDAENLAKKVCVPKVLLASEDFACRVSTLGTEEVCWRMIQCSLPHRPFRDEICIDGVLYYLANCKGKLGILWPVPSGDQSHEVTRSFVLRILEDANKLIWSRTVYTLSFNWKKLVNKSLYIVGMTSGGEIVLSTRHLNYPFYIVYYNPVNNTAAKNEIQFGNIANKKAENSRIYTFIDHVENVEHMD

[2] = biological target: T2, SGS3-… PROTEIN 1 (SGIP1, AT3G47020), firefly luciferase fragment fusion (Arabidopsis) (UniProt Q9SD71); assay: split reporter; split firefly luciferase complementation; fusions to N- or C-terminus of luciferase agroinfiltrated with P19 into N. benthamiana leaves, LUC activity imaged 2 days later
T2 sequence: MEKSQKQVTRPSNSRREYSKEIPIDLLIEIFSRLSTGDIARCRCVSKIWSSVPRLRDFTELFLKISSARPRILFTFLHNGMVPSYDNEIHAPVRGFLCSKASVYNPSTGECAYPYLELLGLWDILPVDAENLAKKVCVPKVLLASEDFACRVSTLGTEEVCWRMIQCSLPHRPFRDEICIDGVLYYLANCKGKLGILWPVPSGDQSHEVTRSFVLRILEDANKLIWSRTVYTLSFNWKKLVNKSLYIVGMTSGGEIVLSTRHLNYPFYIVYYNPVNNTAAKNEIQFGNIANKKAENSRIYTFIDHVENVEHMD

[3] = biological target: T3, FLAG-SGIP1 (FLAG-AT3G47020) (Arabidopsis) (UniProt Q9SD71); assay: co-IP; N. benthamiana leaf lysate (50 mM Tris-HCl pH 7.5, 150 mM NaCl, 1 mM EDTA, 10% glycerol, 1% Triton X-100); anti-FLAG M2 magnetic beads, 4 °C 2 h; blot with anti-SGS3 and anti-FLAG
T3 sequence: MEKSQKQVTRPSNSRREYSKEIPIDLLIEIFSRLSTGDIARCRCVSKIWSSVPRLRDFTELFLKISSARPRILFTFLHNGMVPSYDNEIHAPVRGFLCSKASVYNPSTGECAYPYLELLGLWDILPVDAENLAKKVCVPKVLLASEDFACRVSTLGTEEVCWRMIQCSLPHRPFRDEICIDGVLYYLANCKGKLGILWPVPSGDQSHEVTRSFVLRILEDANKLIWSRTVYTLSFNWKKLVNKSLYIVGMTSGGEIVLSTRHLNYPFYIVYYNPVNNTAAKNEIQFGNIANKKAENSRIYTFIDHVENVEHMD

- binding [1]: binds
B1: SUPPRESSOR OF GENE … 3 (SGS3), GAL4 fusion for yeast two-hybrid (protein, UniProt Q9LDX1 1-625)
chain: MSSRAGPMSKEKNVQGGYRPEVEQLVQGLAGTRLASSQDDGGEWEVISKKNKNKPGNTSGKTWVSQNSNPPRAWGGQQQGRGSNVSGRGNNVSGRGNGNGRGIQANISGRGRALSRKYDNNFVAPPPVSRPPLEGGWNWQARGGSAQHTAVQEFPDVEDDVDNASEEENDSDALDDSDDDLASDDYDSDVSQKSHGSRKQNKWFKKFFGSLDSLSIEQINEPQRQWHCPACQNGPGAIDWYNLHPLLAHARTKGARRVKLHRELAEVLEKDLQMRGASVIPCGEIYGQWKGLGEDEKDYEIVWPPMVIIMNTRLDKDDNDKWLGMGNQELLEYFDKYEALRARHSYGPQGHRGMSVLMFESSATGYLEAERLHRELAEMGLDRIAWGQKRSMFSGGVRQLYGFLATKQDLDIFNQHSQGKTRLKFELKSYQEMVVKELRQISEDNQQLNYFKNKLSKQNKHAKVLEESLEIMSEKLRRTAEDNRIVRQRTKMQHEQNREEMDAHDRFFMDSIKQIHERRDAKEENFEMLQQQERAKVVGQQQQNINPSSNDDCRKRAEEVSSFIEFQEKEMEEFVEEREMLIKDQEKKMEDMKKRHHEEIFDLEKEFDEALEQLMYKHGLHNEDD

- binding [2]: binds
B2: SUPPRESSOR OF GENE … 3 (SGS3), firefly luciferase fragment fusion (protein, UniProt Q9LDX1 1-625)
chain: MSSRAGPMSKEKNVQGGYRPEVEQLVQGLAGTRLASSQDDGGEWEVISKKNKNKPGNTSGKTWVSQNSNPPRAWGGQQQGRGSNVSGRGNNVSGRGNGNGRGIQANISGRGRALSRKYDNNFVAPPPVSRPPLEGGWNWQARGGSAQHTAVQEFPDVEDDVDNASEEENDSDALDDSDDDLASDDYDSDVSQKSHGSRKQNKWFKKFFGSLDSLSIEQINEPQRQWHCPACQNGPGAIDWYNLHPLLAHARTKGARRVKLHRELAEVLEKDLQMRGASVIPCGEIYGQWKGLGEDEKDYEIVWPPMVIIMNTRLDKDDNDKWLGMGNQELLEYFDKYEALRARHSYGPQGHRGMSVLMFESSATGYLEAERLHRELAEMGLDRIAWGQKRSMFSGGVRQLYGFLATKQDLDIFNQHSQGKTRLKFELKSYQEMVVKELRQISEDNQQLNYFKNKLSKQNKHAKVLEESLEIMSEKLRRTAEDNRIVRQRTKMQHEQNREEMDAHDRFFMDSIKQIHERRDAKEENFEMLQQQERAKVVGQQQQNINPSSNDDCRKRAEEVSSFIEFQEKEMEEFVEEREMLIKDQEKKMEDMKKRHHEEIFDLEKEFDEALEQLMYKHGLHNEDD

- binding [3]: binds
B3: SUPPRESSOR OF GENE … 3 (SGS3) in N. benthamiana leaves (co-IP) (protein, UniProt Q9LDX1 1-625)
chain: MSSRAGPMSKEKNVQGGYRPEVEQLVQGLAGTRLASSQDDGGEWEVISKKNKNKPGNTSGKTWVSQNSNPPRAWGGQQQGRGSNVSGRGNNVSGRGNGNGRGIQANISGRGRALSRKYDNNFVAPPPVSRPPLEGGWNWQARGGSAQHTAVQEFPDVEDDVDNASEEENDSDALDDSDDDLASDDYDSDVSQKSHGSRKQNKWFKKFFGSLDSLSIEQINEPQRQWHCPACQNGPGAIDWYNLHPLLAHARTKGARRVKLHRELAEVLEKDLQMRGASVIPCGEIYGQWKGLGEDEKDYEIVWPPMVIIMNTRLDKDDNDKWLGMGNQELLEYFDKYEALRARHSYGPQGHRGMSVLMFESSATGYLEAERLHRELAEMGLDRIAWGQKRSMFSGGVRQLYGFLATKQDLDIFNQHSQGKTRLKFELKSYQEMVVKELRQISEDNQQLNYFKNKLSKQNKHAKVLEESLEIMSEKLRRTAEDNRIVRQRTKMQHEQNREEMDAHDRFFMDSIKQIHERRDAKEENFEMLQQQERAKVVGQQQQNINPSSNDDCRKRAEEVSSFIEFQEKEMEEFVEEREMLIKDQEKKMEDMKKRHHEEIFDLEKEFDEALEQLMYKHGLHNEDD
